Data from publication PMC6901512.
These are yes or no findings as the source states them, for the method shown. For part of these data: Binding seen in cells or lysates may run through a third protein. Some entries that bind do so weakly or less than the wild type.

Amino acid sequences for entries named in this document (tags omitted).
UniProt P03165: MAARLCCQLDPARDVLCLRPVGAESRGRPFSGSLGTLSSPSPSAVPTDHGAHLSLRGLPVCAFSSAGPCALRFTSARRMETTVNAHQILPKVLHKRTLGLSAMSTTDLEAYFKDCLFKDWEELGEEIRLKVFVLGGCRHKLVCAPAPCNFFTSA

What was measured:
[1] = target: HBx-Flag (hepatitis B virus X protein, wild type) (hepatitis B virus) (UniProt P03165); assay: cross-linking; Huh7 cell lysates incubated with 1 mM DSS for 30 min at room temperature, quenched with 10 mM Tris-HCl, sample buffer without SDS and β-mercaptoethanol, SDS-PAGE, blot
[2] = target: T1, endogenous MARCH5 (human (endogenous in HEK293T)) (UniProt Q9NX47); assay: co-IP; HEK293T cells transfected with HBx-Flag; lysates immunoprecipitated with anti-MARCH5 antibody (endogenous MARCH5)
T1 sequence: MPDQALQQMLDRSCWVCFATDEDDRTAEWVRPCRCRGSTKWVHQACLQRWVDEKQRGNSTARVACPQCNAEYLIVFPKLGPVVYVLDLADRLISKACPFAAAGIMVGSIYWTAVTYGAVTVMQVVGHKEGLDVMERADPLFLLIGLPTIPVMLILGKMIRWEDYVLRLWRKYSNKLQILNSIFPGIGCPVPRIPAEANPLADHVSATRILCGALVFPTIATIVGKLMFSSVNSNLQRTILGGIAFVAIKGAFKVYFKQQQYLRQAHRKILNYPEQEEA

[3] = target: HBx-Flag (hepatitis B virus X protein, wild type) (hepatitis B virus) (UniProt P03165); assay: semi-denaturing detergent agarose gel electrophoresis (SDD-AGE); Huh7 cells transfected with HBx-Flag or HBx-Mito-Flag for 36 h, lysed directly in sample buffer without β-mercaptoethanol (2% SDS), 2% agarose gel, blot

Measured: binding

HBx-Flag (hepatitis B virus X protein, wild type) (from UniProt P03165 1-154)
binds: all assays above
